Measurements reported in patent US11078499B2, “Host cells and methods for producing toluene biochemically” (The Regents of the University of California, priority 2018, dated 2021).
At least one compound was matched to its structure with a doubt left.

The chains behind the UniProt entries cited, without tags or fusion partners. Where a name states a change or a piece, a line headed by the entry shows the natural chain unless it says otherwise.
UniProt Q38HX4: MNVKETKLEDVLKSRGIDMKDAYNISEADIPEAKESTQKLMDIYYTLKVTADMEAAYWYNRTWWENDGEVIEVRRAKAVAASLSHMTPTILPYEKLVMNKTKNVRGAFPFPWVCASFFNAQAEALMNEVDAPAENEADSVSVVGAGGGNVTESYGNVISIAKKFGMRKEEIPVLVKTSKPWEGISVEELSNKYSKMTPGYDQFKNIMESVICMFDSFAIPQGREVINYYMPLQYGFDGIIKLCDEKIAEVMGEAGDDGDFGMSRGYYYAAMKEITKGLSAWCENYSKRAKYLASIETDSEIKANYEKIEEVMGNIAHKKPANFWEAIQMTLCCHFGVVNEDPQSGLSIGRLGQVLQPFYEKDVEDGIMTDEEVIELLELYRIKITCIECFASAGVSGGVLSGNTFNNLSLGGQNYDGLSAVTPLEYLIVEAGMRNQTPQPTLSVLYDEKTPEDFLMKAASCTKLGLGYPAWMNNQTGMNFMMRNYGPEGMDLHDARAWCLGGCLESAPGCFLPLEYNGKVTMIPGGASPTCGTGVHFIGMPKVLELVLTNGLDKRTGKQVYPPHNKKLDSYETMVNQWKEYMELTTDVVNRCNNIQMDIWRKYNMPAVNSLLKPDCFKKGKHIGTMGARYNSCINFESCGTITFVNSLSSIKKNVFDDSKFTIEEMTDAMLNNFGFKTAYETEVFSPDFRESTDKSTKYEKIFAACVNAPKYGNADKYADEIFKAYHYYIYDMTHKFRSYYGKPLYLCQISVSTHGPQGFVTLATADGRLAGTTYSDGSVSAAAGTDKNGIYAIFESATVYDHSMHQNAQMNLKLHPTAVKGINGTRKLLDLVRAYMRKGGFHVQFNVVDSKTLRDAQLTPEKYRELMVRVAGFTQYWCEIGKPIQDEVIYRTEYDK

How the values were obtained:
PhdB = assay: Assays testing whether PhdB could decarboxylate o-, m-, or p-hydroxyphenylacetate, equimolar with phenylacetic acid-2-13C; type: biochemical, Acidobacteria strain Tolsyn; conditions: equimolar phenylacetate and p-hydroxyphenylacetate (2.5 mM) with PhdA, PhdB and SAM
Protocol: Analogous assays with o- and m-hydroxyphenylacetate similarly indicated very low (in this case, undetectable) PhdB activity for these hydroxyphenylacetate isomers, whereas labeled toluene is easily detected.
Assays for phenylacetate decarboxylase activity were performed under strictly anaerobic conditions within a glove box. […] Quantitative standards contained the same headspace/liquid ratios as assays and a dimensionless Henry's constant of 0.27^43 was used to calculate aqueous concentration. […] Gaseous headspace samples (100 μL) were taken within the glove box using a 500-μL gastight syringe (Sample-Lok series A-2; Sigma-Aldrich) and analyzed immediately by GC/MS, as described previously^8. Briefly, toluene was analyzed by static headspace, electron ionization (EI) GC/MS using a model 7890A GC (Agilent, Santa Clara, Calif.) with a DB-5 fused silica capillary column (30-m length, 0.25-mm inner diameter, 0.25-μm film thickness; Agilent) coupled to an HP 5975C series quadrupole mass spectrometer. […] The identity of o-, m-, or p-cresol was assessed using retention time and the expected m/z 108/107 ratio of 1.16, 1.05, or 0.83, respectively, based on authentic standards.

[1] = target: p-hydroxyphenylacetate decarboxylase (CsdBC) (Clostridium scatologenes, UniProt Q38HX4); conditions: cited from earlier work

Structure (SMILES): O=C(O)Cc1ccccc1 [phenylacetate]
- labeled toluene production (PhdB): readily observed
- activity of CsdBC on substrate [1]: does not act
